From PMC6197226
These are yes or no findings as the source states them, for the method shown.

Assays:
[1] = molecular target: p62 ZZ domain (aa 120-190) D147K (human) (UniProt Q13501); assay: NMR titration; 1H,15N HSQC; peptide titrated into 0.1 mM uniformly 15N-labeled WT or mutated p62ZZ; 298 K; 20 mM Tris-HCl pH 7.0, 100 mM NaCl, 5 mM DTT, 8% D2O; both purified
[2] = molecular target: p62 ZZ domain (aa 120-190) D129K (human) (UniProt Q13501); assay: as above

KEKKECRRDHR [K100…110 (p62_(100-110)) peptide]
binding [1]: no binding | binding [2]: no binding
